{"source": "the supplement of paper PMC8728848", "binders": {"B1": {"name": "GS13971A-bth-447-22-447 (Bacteroides thetaiotaomicron) (protein)", "chain": "EDVDNERSKGMFSASQSGFSTIEVYDLGPLNKIDLSIAKAGLEDTGGTVTFSVEQSLLDSLNNADGTSYQLLPPECYTIENATYSVSPGGDRRVTGGSLVYDPHKIYNLCGFDELKYVLPLRVSSTGTPMNSDRTATLYGFIVKEAIVRLASTGGDFVVEGGTTTSPMNLDTEISFENEWDLTTSFATKGADYVDNYNSANSTYYIPLPSDFYTLPDVTIAKGKTTGGSAISLLGETLPPGNYLLPVSLGGLSGQGDASINIDKETVANYFVIKQGGPINRDHWTVTANTEEKTGEVSAAYPHNGQTISLIDGEINTFWHSKWQGGEVAPPYEIILDMGKENSVSQLGLIARQNALTSMNLEIYAGDDGETWNLIGKYFFDGSIKTEQMVPVKACDARWIRIYIPTLGSGSSVGHLAEIYVYGTDK"}}, "assay_in_all_cases": "glycan array binding signal (z-score within array); higher = stronger binding", "conditions_in_all_cases": "glycan notation: IUPAC condensed, linker removed", "key": {"[1]": {"biological_target": "Neu5Ac(a2-6)Gal(b1-4)GlcNAc(b1-2)Man(a1-3)[Man(a1-6)]Man(b1-4)GlcNAc(b1-4)GlcNAc", "summary_of_the_method": "(§1)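 The binding signal is a Z-score computed within each array and averaged over linkers. Arrays of the same protein sequence at different concentrations or buffers were also averaged together. Data originate from 3228 arrays in the Consortium for Functional Glycomics database, kept only where the protein sequence was available.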"}, "[2]": {"biological_target": "Neu5Ac(a2-6)Gal(b1-4)GlcNAc(b1-2)Man(a1-3)[Neu5Ac(a2-3)Gal(b1-4)GlcNAc(b1-2)Man(a1-6)]Man(b1-4)GlcNAc(b1-4)GlcNAc", "summary_of_the_method": "as §1"}, "[3]": {"biological_target": "Neu5Ac(a2-6)Gal(b1-4)GlcNAc(b1-2)Man(a1-3)[Neu5Ac(a2-6)Gal(b1-4)GlcNAc(b1-2)Man(a1-6)]Man(b1-4)GlcNAc(b1-4)GlcNAc", "summary_of_the_method": "as §1"}, "[4]": {"biological_target": "Neu5Ac(a2-6)Gal(b1-4)GlcNAc(b1-2)Man(a1-3)[Neu5Ac(a2-6)Gal(b1-4)GlcNAc(b1-2)Man(a1-6)]Man(b1-4)GlcNAc(b1-4)[Fuc(a1-6)]GlcNAc", "summary_of_the_method": "as §1"}, "[5]": {"biological_target": "Neu5Ac(a2-6)Gal(b1-4)GlcNAc(b1-2)Man(a1-6)Man(b1-4)GlcNAc(b1-4)GlcNAc", "summary_of_the_method": "as §1"}, "[6]": {"biological_target": "Neu5Ac(a2-6)Gal(b1-4)GlcNAc(b1-2)Man(a1-6)[Gal(b1-4)GlcNAc(b1-2)Man(a1-3)]Man(b1-4)GlcNAc(b1-4)GlcNAc", "summary_of_the_method": "as §1"}, "[7]": {"biological_target": "Neu5Ac(a2-6)Gal(b1-4)GlcNAc(b1-2)Man(a1-6)[GlcNAc(b1-2)Man(a1-3)]Man(b1-4)GlcNAc(b1-4)GlcNAc", "summary_of_the_method": "as §1"}, "[8]": {"biological_target": "Neu5Ac(a2-6)Gal(b1-4)GlcNAc(b1-2)Man(a1-6)[Man(a1-3)]Man(b1-4)GlcNAc(b1-4)GlcNAc", "summary_of_the_method": "as §1"}, "[9]": {"biological_target": "Neu5Ac(a2-6)Gal(b1-4)GlcNAc(b1-2)[Neu5Ac(a2-6)Gal(b1-4)GlcNAc(b1-4)]Man(a1-3)[GlcNAc(b1-4)][Neu5Ac(a2-6)Gal(b1-4)GlcNAc(b1-2)[Neu5Ac(a2-6)Gal(b1-4)GlcNAc(b1-6)]Man(a1-6)]Man(b1-4)GlcNAc(b1-4)GlcNAc", "summary_of_the_method": "as §1"}, "[10]": {"biological_target": "Neu5Ac(a2-6)Gal(b1-4)GlcNAc(b1-2)[Neu5Ac(a2-6)Gal(b1-4)GlcNAc(b1-4)]Man(a1-3)[GlcNAc(b1-4)][Neu5Ac(a2-6)Gal(b1-4)GlcNAc(b1-4)Man(a1-6)]Man(b1-4)GlcNAc(b1-4)GlcNAc", "summary_of_the_method": "as §1"}, "[11]": {"biological_target": "Neu5Ac(a2-6)Gal(b1-4)GlcNAc(b1-2)[Neu5Ac(a2-6)Gal(b1-4)GlcNAc(b1-6)]Man(a1-6)[Neu5Ac(a2-6)Gal(b1-4)GlcNAc(b1-2)Man(a1-3)][GlcNAc(b1-4)]Man(b1-4)GlcNAc(b1-4)GlcNAc", "summary_of_the_method": "as §1"}, "[12]": {"biological_target": "Neu5Ac(a2-6)Gal(b1-4)GlcNAc(b1-3)Gal(b1-3)GlcNAc", "summary_of_the_method": "as §1"}, "[13]": {"biological_target": "Neu5Ac(a2-6)Gal(b1-4)GlcNAc(b1-3)Gal(b1-4)GlcNAc", "summary_of_the_method": "as §1"}, "[14]": {"biological_target": "Neu5Ac(a2-6)Gal(b1-4)GlcNAc(b1-3)Gal(b1-4)GlcNAc(b1-2)Man(a1-3)[Neu5Ac(a2-6)Gal(b1-4)GlcNAc(b1-3)Gal(b1-4)GlcNAc(b1-2)Man(a1-6)]GalNAc", "summary_of_the_method": "as §1"}, "[15]": {"biological_target": "Neu5Ac(a2-6)Gal(b1-4)GlcNAc(b1-3)Gal(b1-4)GlcNAc(b1-3)Gal(b1-4)GlcNAc", "summary_of_the_method": "as §1"}, "[16]": {"biological_target": "Neu5Ac(a2-6)Gal(b1-4)GlcNAc(b1-3)Gal(b1-4)GlcNAc(b1-3)Gal(b1-4)GlcNAc(b1-2)Man(a1-3)[Neu5Ac(a2-6)Gal(b1-4)GlcNAc(b1-3)Gal(b1-4)GlcNAc(b1-3)Gal(b1-4)GlcNAc(b1-2)Man(a1-6)]GalNAc", "summary_of_the_method": "as §1"}, "[17]": {"biological_target": "Neu5Ac(a2-6)Gal(b1-4)GlcNAc(b1-3)Gal(b1-4)GlcNAc(b1-3)GalNAc", "summary_of_the_method": "as §1"}, "[18]": {"biological_target": "Neu5Ac(a2-6)Gal(b1-4)GlcNAc(b1-3)Gal(b1-4)GlcNAc(b1-3)[Neu5Ac(a2-6)Gal(b1-4)GlcNAc(b1-3)Gal(b1-4)GlcNAc(b1-6)]GalNAc", "summary_of_the_method": "as §1"}, "[19]": {"biological_target": "Neu5Ac(a2-6)Gal(b1-4)GlcNAc(b1-3)Gal(b1-4)GlcNAc(b1-6)[Gal(b1-3)]GalNAc", "summary_of_the_method": "as §1"}, "[20]": {"biological_target": "Neu5Ac(a2-6)Gal(b1-4)GlcNAc(b1-3)Gal(b1-4)[Fuc(a1-3)]GlcNAc(b1-3)Gal(b1-4)[Fuc(a1-3)]GlcNAc", "summary_of_the_method": "as §1"}, "[21]": {"biological_target": "Neu5Ac(a2-6)Gal(b1-4)GlcNAc(b1-3)GalNAc", "summary_of_the_method": "as §1"}, "[22]": {"biological_target": "Neu5Ac(a2-6)Gal(b1-4)GlcNAc(b1-3)[Neu5Ac(a2-6)Gal(b1-4)GlcNAc(b1-6)]GalNAc", "summary_of_the_method": "as §1"}, "[23]": {"biological_target": "Neu5Ac(a2-6)Gal(b1-4)GlcNAc(b1-6)GalNAc", "summary_of_the_method": "as §1"}, "[24]": {"biological_target": "Neu5Ac(a2-6)Gal(b1-4)GlcNAc(b1-6)[Gal(b1-3)GlcNAc(b1-3)]Gal(b1-4)Glc", "summary_of_the_method": "as §1"}, "[25]": {"biological_target": "Neu5Ac(a2-6)Gal(b1-4)GlcNAc(b1-6)[Gal(b1-3)]GalNAc", "summary_of_the_method": "as §1"}, "[26]": {"biological_target": "Neu5Ac(a2-6)Gal(b1-4)GlcNAc6S", "summary_of_the_method": "as §1"}, "Neu5Ac(a2-6)GalNAc": {"biological_target": "Neu5Ac(a2-6)GalNAc", "summary_of_the_method": "as §1"}, "[27]": {"biological_target": "Neu5Ac(a2-6)GalNAc(b1-4)GlcNAc", "summary_of_the_method": "as §1"}, "[28]": {"biological_target": "Neu5Ac(a2-6)GalNAc(b1-4)GlcNAc6S", "summary_of_the_method": "as §1"}, "[29]": {"biological_target": "Neu5Ac(a2-6)GlcNAc(b1-4)GlcNAc", "summary_of_the_method": "as §1"}, "[30]": {"biological_target": "Neu5Ac(a2-6)GlcNAc(b1-4)GlcNAc(b1-4)GlcNAc", "summary_of_the_method": "as §1"}}, "note": "Some of the results follow."}
{"binder": "B1", "values": [{"measurement": "glycan array binding signal (z-score)", "setting": "[1]", "value": -0.289}, {"measurement": "glycan array binding signal (z-score)", "setting": "[2]", "value": -0.011}, {"measurement": "glycan array binding signal (z-score)", "setting": "[3]", "value": 0.264}, {"measurement": "glycan array binding signal (z-score)", "setting": "[4]", "value": -0.821}, {"measurement": "glycan array binding signal (z-score)", "setting": "[5]", "value": -1.16}, {"measurement": "glycan array binding signal (z-score)", "setting": "[6]", "value": 0.73}, {"measurement": "glycan array binding signal (z-score)", "setting": "[7]", "value": 0.459}, {"measurement": "glycan array binding signal (z-score)", "setting": "[8]", "value": -0.26}, {"measurement": "glycan array binding signal (z-score)", "setting": "[9]", "value": 0.548}, {"measurement": "glycan array binding signal (z-score)", "setting": "[10]", "value": -1.25}, {"measurement": "glycan array binding signal (z-score)", "setting": "[11]", "value": -1.04}, {"measurement": "glycan array binding signal (z-score)", "setting": "[12]", "value": -0.555}, {"measurement": "glycan array binding signal (z-score)", "setting": "[13]", "value": 0.604}, {"measurement": "glycan array binding signal (z-score)", "setting": "[14]", "value": -0.099}, {"measurement": "glycan array binding signal (z-score)", "setting": "[15]", "value": -1.17}, {"measurement": "glycan array binding signal (z-score)", "setting": "[16]", "value": -0.631}, {"measurement": "glycan array binding signal (z-score)", "setting": "[17]", "value": -1.02}, {"measurement": "glycan array binding signal (z-score)", "setting": "[18]", "value": -0.529}, {"measurement": "glycan array binding signal (z-score)", "setting": "[19]", "value": -0.378}, {"measurement": "glycan array binding signal (z-score)", "setting": "[20]", "value": -0.211}, {"measurement": "glycan array binding signal (z-score)", "setting": "[21]", "value": -0.52}, {"measurement": "glycan array binding signal (z-score)", "setting": "[22]", "value": -0.595}, {"measurement": "glycan array binding signal (z-score)", "setting": "[23]", "value": -0.516}, {"measurement": "glycan array binding signal (z-score)", "setting": "[24]", "value": -0.069}, {"measurement": "glycan array binding signal (z-score)", "setting": "[25]", "value": -1.14}, {"measurement": "glycan array binding signal (z-score)", "setting": "[26]", "value": -1.24}, {"measurement": "glycan array binding signal (z-score)", "setting": "Neu5Ac(a2-6)GalNAc", "value": -0.71}, {"measurement": "glycan array binding signal (z-score)", "setting": "[27]", "value": -0.654}, {"measurement": "glycan array binding signal (z-score)", "setting": "[28]", "value": -0.483}, {"measurement": "glycan array binding signal (z-score)", "setting": "[29]", "value": 0.582}, {"measurement": "glycan array binding signal (z-score)", "setting": "[30]", "value": -0.673}]}
